{
  "source": "patent US9388419B2",
  "about": "(The Regents of the University of Colorado, a body corporate, priority 2009, dated 2016)",
  "test_system": "E. coli",
  "type": "cell-based, Escherichia coli",
  "conditions": "anaerobic",
  "protocol": "For MIC evaluations, the final results are expressed in chemical agent concentrations determined by analysis of the stock solution by HPLC (i.e., see Subsection Mb).\nThe minimum inhibitory concentration (MIC) was determined anaerobically in a 96 well-plate format. […] Media supplements were added according to levels reported in the Supplements Table, where specified. Overnight cultures of strains were grown in triplicate in 5 mL LB (with antibiotic where appropriate). A 1% (v/v) inoculum was introduced into a 5 ml culture of M9 minimal media.",
  "note": "Read-outs that look alike come from different tables or passages of the source. Further values from the same series stand in other lists.",
  "data": [
    {"compound": "O=C(O)CCO", "note": "[3-HP, 3-hydroxypropionic acid]", "values": [
      {"measurement": "% Increase Over Control", "setting": "BW25113, EZ Rich media, no supplement, versus M9 control", "result": 150, "unit": "%"},
      {"measurement": "% Increase Over Control", "setting": "strain BX_00311.0: BW25113 wild type + pSmart-LC-Kan-glyA-ORF, M9 + Kan 20 μg/mL", "result": 20, "unit": "%"},
      {"measurement": "% Increase Over Control", "setting": "strain BX_00321.0: BW25113 wild type + pK223-ct-his-thrA, M9 + Amp 100 μg/mL + 1 mM IPTG", "result": 33, "unit": "%"},
      {"measurement": "% Increase Over Control", "setting": "strain BX_00322.0: BW25113 wild type + pJ61-speFED, M9 + Kan 20 μg/mL", "result": 67, "unit": "%"},
      {"measurement": "% Increase Over Control", "setting": "strain BX_00323.0: BW25113 wild type + pJ61-aroG, M9 + Kan 20 μg/mL", "result": 33, "unit": "%"},
      {"measurement": "% Increase Over Control", "setting": "strain BX_00324.0: BW25113 wild type + pJ61-thrA, M9 + Kan 20 μg/mL", "result": 33, "unit": "%"},
      {"measurement": "% Increase Over Control", "setting": "strain BX_00325.0: BW25113 wild type + pJ61-asd, M9 + Kan 20 μg/mL", "result": 33, "unit": "%"},
      {"measurement": "% Increase Over Control", "setting": "strain BX_00326.0: BW25113 wild type + pJ61-ilvA, M9 + Kan 20 μg/mL", "result": 33, "unit": "%"},
      {"measurement": "% Increase Over Control", "setting": "strain BX_00327.0: BW25113 wild type + pJ61-cysM, M9 + Kan 20 μg/mL", "result": 33, "unit": "%"},
      {"measurement": "% Increase Over Control", "setting": "strain BX_00357.0: BW25113 wild type + pKK223-aroH*445, M9 + Amp 100 μg/mL + 1 mM IPTG", "result": 33, "unit": "%"},
      {"measurement": "% Increase Over Control", "setting": "strain BX_00358.0: BW25113 wild type + pKK223-aroH*447, M9 + Amp 100 μg/mL + 1 mM IPTG", "result": 33, "unit": "%"},
      {"measurement": "% Increase Over Control", "setting": "strain BX_00359.0: BW25113 wild type + pKK223-aroH*457, M9 + Amp 100 μg/mL + 1 mM IPTG", "result": 33, "unit": "%"},
      {"measurement": "% Increase Over Control", "setting": "strain BX_00360.0: BW25113 wild type + pACYC177(Kan only)-cynTS, M9 + Kan 20 μg/mL", "result": 33, "unit": "%"},
      {"measurement": "% Increase Over Control", "setting": "strain BX_00362.0: BW25113 wild type + pACYC177(Kan only)-aroH, M9 + Kan 20 μg/mL + 1 mM IPTG", "result": 33, "unit": "%"},
      {"measurement": "% Increase Over Control", "setting": "strain BX_00363.0: BW25113 wild type + pACYC177(Kan only)-speB, M9 + Kan 20 μg/mL", "result": 33, "unit": "%"},
      {"measurement": "% Increase Over Control", "setting": "strain BX_00364.0: BW25113 wild type + pACYC177(Kan only)-metE, M9 + Kan 20 μg/mL + 1 mM IPTG", "result": 33, "unit": "%"},
      {"measurement": "% Increase Over Control", "setting": "strain BX_00365.0: BW25113 wild type + pACYC177(Kan only)-metC, M9 + Kan 20 μg/mL", "result": 33, "unit": "%"},
      {"measurement": "% Increase Over Control", "setting": "strain BX_00368.0: BW25113 wild type + pBT-3-cynTS, M9 + Cm (20 μg/mL)", "result": 33, "unit": "%"}
    ]}
  ]
}
